Experiment [1] concerns the target T1, human ENIP1 (human) (UniProt P78316).
T1 sequence: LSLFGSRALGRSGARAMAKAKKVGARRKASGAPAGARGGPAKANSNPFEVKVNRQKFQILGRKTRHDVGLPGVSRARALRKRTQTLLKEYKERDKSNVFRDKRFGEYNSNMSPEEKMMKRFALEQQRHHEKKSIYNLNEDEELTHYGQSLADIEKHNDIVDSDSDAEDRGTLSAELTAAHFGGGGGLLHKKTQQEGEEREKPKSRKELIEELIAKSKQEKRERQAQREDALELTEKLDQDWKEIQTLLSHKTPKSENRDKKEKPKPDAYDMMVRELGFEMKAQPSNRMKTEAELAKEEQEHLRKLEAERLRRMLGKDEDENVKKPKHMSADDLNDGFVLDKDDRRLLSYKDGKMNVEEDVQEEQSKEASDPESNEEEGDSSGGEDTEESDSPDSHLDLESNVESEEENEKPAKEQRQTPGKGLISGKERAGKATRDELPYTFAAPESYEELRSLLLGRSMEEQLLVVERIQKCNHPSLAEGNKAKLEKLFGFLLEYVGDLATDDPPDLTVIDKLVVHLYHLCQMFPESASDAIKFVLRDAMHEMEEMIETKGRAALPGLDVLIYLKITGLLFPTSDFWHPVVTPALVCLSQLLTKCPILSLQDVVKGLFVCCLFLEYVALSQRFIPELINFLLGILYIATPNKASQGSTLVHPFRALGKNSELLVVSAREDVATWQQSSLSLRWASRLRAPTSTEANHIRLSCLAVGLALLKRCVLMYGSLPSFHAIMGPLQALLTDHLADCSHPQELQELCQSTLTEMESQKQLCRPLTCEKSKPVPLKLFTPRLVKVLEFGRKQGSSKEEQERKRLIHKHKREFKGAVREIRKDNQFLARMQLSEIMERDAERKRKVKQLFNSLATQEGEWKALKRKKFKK
The experiment is described as follows: yeast two-hybrid, cell growth assay on selective (no histidine) medium.

The chains behind the UniProt entries cited, without tags or fusion partners. Where a name states a change or a piece, a line headed by the entry shows the natural chain unless it says otherwise.
UniProt P78316: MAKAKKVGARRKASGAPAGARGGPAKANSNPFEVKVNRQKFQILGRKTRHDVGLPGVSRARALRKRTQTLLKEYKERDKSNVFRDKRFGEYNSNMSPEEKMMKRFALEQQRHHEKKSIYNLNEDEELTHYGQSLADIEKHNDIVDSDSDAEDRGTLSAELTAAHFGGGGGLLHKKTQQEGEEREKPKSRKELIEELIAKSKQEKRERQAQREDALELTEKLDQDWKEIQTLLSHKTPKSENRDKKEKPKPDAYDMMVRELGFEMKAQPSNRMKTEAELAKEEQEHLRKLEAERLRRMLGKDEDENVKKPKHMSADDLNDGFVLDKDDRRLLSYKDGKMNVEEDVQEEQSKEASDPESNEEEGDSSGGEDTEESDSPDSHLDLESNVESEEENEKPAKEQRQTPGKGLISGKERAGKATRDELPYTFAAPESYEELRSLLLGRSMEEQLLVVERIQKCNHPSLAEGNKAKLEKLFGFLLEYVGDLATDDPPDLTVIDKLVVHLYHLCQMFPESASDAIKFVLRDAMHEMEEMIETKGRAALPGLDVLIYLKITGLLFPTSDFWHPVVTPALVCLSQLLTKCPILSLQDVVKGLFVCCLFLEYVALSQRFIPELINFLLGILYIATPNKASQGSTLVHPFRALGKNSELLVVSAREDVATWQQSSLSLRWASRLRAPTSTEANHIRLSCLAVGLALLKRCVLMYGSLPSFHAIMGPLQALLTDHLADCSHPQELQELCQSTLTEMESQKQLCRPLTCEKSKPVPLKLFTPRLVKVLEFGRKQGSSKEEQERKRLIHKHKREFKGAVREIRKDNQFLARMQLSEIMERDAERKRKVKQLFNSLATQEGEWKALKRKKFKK

Experiment [2] concerns the target T1, human ENIP1 (human). The experiment is described as follows: yeast two-hybrid (FIG. 17).

No constants are given. Whether binding was seen depends on the method and setting. Some binding calls cover weakened binding; strength is not graded here.

We go through one molecule from US6383753 (REGENTS OF THE UNIVERSITY OF MICHIGAN, dated 2002).

B1: mouse Emg1 protein (other)
chain: MSAASGGFQPRERRFSVQEQDWETTPPKKLRLGAGSKCGGRRLIVVLEGASLETVKVGKTYELLNCDRHKSMLLKNGRDPGEVRPDITHQSLLMLMDSPLNRAGLLQVYIHTQKNVLIEVNPQTRIPRTFDRFCGLMVQLLHKLSVRAADGPQKLLKVIKNPVSDHFPVGCMKIGTSFSVEDISDIRELVPSSDPVVFVVGAFAHGKVSVEYTEKMVSISNYPLSAALTCAKVTTAFEEVWGVI
notes: Used as a two-hybrid fusion; also called mEmg1; murine Emg1
In the case of B1, the binding entry in experiment [1] and in experiment [2] was “binds” each time.
